Laboratory results published in US7906486B2, “Method of treating or preventing tissue deterioration, injury or damage due to disease of mucosa” (SciClone Pharmaceuticals, Inc., priority 2007, dated 2011).
“And” between values parts separate entries of the source, which are not always exact repeats. Identical values can stand only once. Further values from the same series stand in other lists.

Experiment: Weights and survival (Example 1, SCI-01)
Format: in vivo, Syrian Golden Hamsters
Method: All animals were weighed daily and their survival recorded, in order to assess possible differences in animal weight among treatment groups as an indication for mucositis severity and/or possible toxicity resulting from the treatments.
The mean daily percent weight change data was evaluated. The saline (PBS) treated control hamsters gained an average of 70.4% of their starting weight during the study. Hamsters in the group receiving SCV-07 at 1 ug/kg on days −1 to 16 gained an average of 68.4% of their starting weight during the study. Hamsters in the group receiving SCV-07 at 10 ug/kg on days −1 to 16 gained an average of 70.3% of their starting weight during the study. Hamsters in the group receiving SCV-07 at 100 ug/kg on days −1 to 16 gained an average of 82.0% of their starting weight during the study. The significance of these differences was evaluated by calculating the area-under-the-curve (AUC) for the weight gain of each animal, and then comparing the different treatment groups using a One-Way ANOVA test.

## N[C@H](CCC(=O)N[C@@H](Cc1c[nH]c2ccccc12)C(=O)O)C(=O)O [SCV-07, γ-D-glutamyl-L-tryptophan]
Group 3, SCV-07 10 ug/kg sc qd, Day 15
  Animal weight: 112 and 110 and 101 and 105 and 111 and 120 and 121 and 131
Group 3, SCV-07 10 ug/kg sc qd, Day 16
  Animal weight: 116 and 102 and 111 and 107 and 115 and 124 and 134
Group 3, SCV-07 10 ug/kg sc qd, Day 17
  Animal weight: 116 and 107 and 102 and 104 and 111 and 123 and 125 and 133
Group 3, SCV-07 10 ug/kg sc qd, Day 18
  Animal weight: 122 and 113 and 107 and 117 and 130 and 132 and 142
Group 3, SCV-07 10 ug/kg sc qd, Day 19
  Animal weight: 124 and 115 and 111 and 116 and 119 and 132 and 137 and 146
Group 3, SCV-07 10 ug/kg sc qd, Day 20
  Animal weight: 123 and 117 and 112 and 115 and 120 and 134 and 139 and 147
Group 3, SCV-07 10 ug/kg sc qd, Day 21
  Animal weight: 122 and 119 and 113 and 120 and 136 and 139 and 149
Group 3, SCV-07 10 ug/kg sc qd, Day 22
  Animal weight: 123 and 121 and 115 and 119 and 137 and 141 and 150
Group 3, SCV-07 10 ug/kg sc qd, Day 23
  Animal weight: 126 and 122 and 117 and 125 and 140 and 145 and 155
Group 3, SCV-07 10 ug/kg sc qd, Day 24
  Animal weight: 126 and 120 and 122 and 125 and 139 and 146 and 155
Group 3, SCV-07 10 ug/kg sc qd, Day 25
  Animal weight: 132 and 128 and 122 and 127 and 145 and 146 and 160
Group 3, SCV-07 10 ug/kg sc qd, Day 26
  Animal weight: 132 and 130 and 123 and 127 and 129 and 145 and 153 and 161
Group 3, SCV-07 10 ug/kg sc qd, Day 27
  Animal weight: 133 and 120 and 131 and 132 and 149 and 155 and 165
Group 3, SCV-07 10 ug/kg sc qd, Day 28
  Animal weight: 137 and 129 and 134 and 135 and 151 and 167
Group 3, SCV-07 10 ug/kg sc qd, Day -1
  Animal weight: 81 and 87 and 85 and 76 and 90 and 91 and 86
Group 4, SCV-07 100 ug/kg sc qd, Day 0
  Animal weight: 87 and 91 and 101 and 95 and 90 and 88 and 100
Group 4, SCV-07 100 ug/kg sc qd, Day 1
  Animal weight: 87 and 98 and 101 and 93 and 86 and 89 and 99
Group 4, SCV-07 100 ug/kg sc qd, Day 2
  Animal weight: 91 and 94 and 108 and 98 and 92 and 106
Group 4, SCV-07 100 ug/kg sc qd, Day 3
  Animal weight: 93 and 95 and 110 and 101 and 97 and 109 and 94
Group 4, SCV-07 100 ug/kg sc qd, Day 4
  Animal weight: 96 and 98 and 111 and 103 and 100 and 99 and 97
Group 4, SCV-07 100 ug/kg sc qd, Day 5
  Animal weight: 100 and 101 and 119 and 104 and 106 and 118 and 105
Group 4, SCV-07 100 ug/kg sc qd, Day 6
  Animal weight: 103 and 104 and 123 and 115 and 106 and 109 and 119
Group 4, SCV-07 100 ug/kg sc qd, Day 7
  Animal weight: 105 and 124 and 118 and 108 and 111 and 122
Group 4, SCV-07 100 ug/kg sc qd, Day 8
  Animal weight: 109 and 127 and 118 and 111 and 115 and 126 and 110
Group 4, SCV-07 100 ug/kg sc qd, Day 9
  Animal weight: 111 and 112 and 132 and 124 and 114 and 120 and 127
Group 4, SCV-07 100 ug/kg sc qd, Day 10
  Animal weight: 110 and 111 and 133 and 121 and 115 and 118 and 128 and 113
Group 4, SCV-07 100 ug/kg sc qd, Day 11
  Animal weight: 117 and 119 and 137 and 130 and 120 and 129 and 136 and 118
Group 4, SCV-07 100 ug/kg sc qd, Day 12
  Animal weight: 119 and 117 and 138 and 131 and 123 and 137 and 121
Group 4, SCV-07 100 ug/kg sc qd, Day 13
  Animal weight: 117 and 115 and 134 and 132 and 121 and 127 and 133 and 118
Group 4, SCV-07 100 ug/kg sc qd, Day 14
  Animal weight: 117 and 118 and 139 and 125 and 132 and 138 and 120
Group 4, SCV-07 100 ug/kg sc qd, Day 15
  Animal weight: 116 and 117 and 138 and 126 and 133 and 139 and 119
Group 4, SCV-07 100 ug/kg sc qd, Day 16
  Animal weight: 118 and 120 and 141 and 143 and 129 and 136 and 142 and 125
Group 4, SCV-07 100 ug/kg sc qd, Day 17
  Animal weight: 118 and 119 and 142 and 143 and 130 and 136 and 140 and 125
Group 4, SCV-07 100 ug/kg sc qd, Day 18
  Animal weight: 124 and 126 and 151 and 152 and 137 and 144 and 148 and 131
Group 4, SCV-07 100 ug/kg sc qd, Day 19
  Animal weight: 124 and 126 and 153 and 155 and 139 and 149 and 151 and 134
Group 4, SCV-07 100 ug/kg sc qd, Day 20
  Animal weight: 124 and 129 and 154 and 159 and 141 and 148 and 152 and 136
Group 4, SCV-07 100 ug/kg sc qd, Day 21
  Animal weight: 123 and 132 and 156 and 159 and 143 and 150 and 153 and 137
Group 4, SCV-07 100 ug/kg sc qd, Day 22
  Animal weight: 124 and 134 and 157 and 162 and 147 and 154 and 156 and 138
Group 4, SCV-07 100 ug/kg sc qd, Day 23
  Animal weight: 124 and 135 and 161 and 164 and 151 and 156 and 141
Group 4, SCV-07 100 ug/kg sc qd, Day 24
  Animal weight: 124 and 135 and 167 and 150 and 160 and 157 and 142
Group 4, SCV-07 100 ug/kg sc qd, Day 25
  Animal weight: 127 and 138 and 167 and 173 and 156 and 165 and 164 and 147
Group 4, SCV-07 100 ug/kg sc qd, Day 26
  Animal weight: 127 and 140 and 175 and 169 and 158 and 165 and 163 and 147
Group 4, SCV-07 100 ug/kg sc qd, Day 27
  Animal weight: 129 and 143 and 169 and 175 and 160 and 167 and 164 and 149
Group 4, SCV-07 100 ug/kg sc qd, Day 28
  Animal weight: 131 and 147 and 172 and 182 and 166 and 168 and 152
Group 4, SCV-07 100 ug/kg sc qd, Day -1
  Animal weight: 84 and 87 and 97 and 88 and 86 and 95 and 85
